# Measurements taken from paper doi:10.1101/2022.01.25.477727.
# These are yes or no findings as the source states them, for the method shown. In cells and extracts the contact can be indirect. These calls come from enrichment with a bait or labelling near it, and not all partners need be listed.
# B1: Hippo (Hpo), endogenous in flies (enzyme, UniProt Q8T0S6 1-669)
# chain: MSEPEVTSVVDMKSPNISSSCSFFKLKKLSEESLLQPPEKVFDIMYKLGEGSYGSVYKAVHKESSSIVAIKLVPVESDLHEIIKEISIMQQCDSPYVVRYYGSYFKQYDLWICMEYCGAGSVSDIMRLRKKTLTEDEIATILSDTLQGLVYLHLRRKIHRDIKAANILLNTEGYAKLADFGVAGQLTDTMAKRNTVIGTPFWMAPEVIEEIGYDCVADIWSLGITALEMAEGKPPYGEIHPMRAIFMIPQKPPPSFREPDRWSTEFIDFVSKCLVKEPDDRATATELLEHEFIRNAKHRSILKPMLEETCAIREQQRANRSFGGVLAASQAKSLATQENGMQQHITDNAFMEDPGTLVPEKFGEYQQSSASDATMIAHAEQGVDEGTLGPGGLRNLSKAAAPAAASSAASPLDMPAVDSGTMVELESNLGTMVINSDSDDSTTAKNNDDQKPRNRYRPQFLEHFDRKNAGDGRGDEKPIATEYSPAAAEQQQQQQQQQQQQQQDEQHLASGANDLNNWEHNMEMQFQQISAINQYGLQQHQQQQQVLMAYPLMNEQLIALNNQPNLLLSNAAPMGQQGIPAAAPAQPPPAYQNQHMHTQSHAYVEGEFEFLKFLTFDDLNQRLCNIDHEMELEIEQLNKKYNAKRQPIVDAMNAKRKRQQNINNNLIKI
# Target: EMC1-Flag (Flag-tagged Drosophila EMC1, from UAS-EMC1-FLAG) (Drosophila melanogaster)
# Assay: affinity purification with mass spectrometry
binder,measurement,value
B1,binding,binds
